By UniProt entry, the sequences of proteins in these tests, tags left out.
UniProt Q8WW22: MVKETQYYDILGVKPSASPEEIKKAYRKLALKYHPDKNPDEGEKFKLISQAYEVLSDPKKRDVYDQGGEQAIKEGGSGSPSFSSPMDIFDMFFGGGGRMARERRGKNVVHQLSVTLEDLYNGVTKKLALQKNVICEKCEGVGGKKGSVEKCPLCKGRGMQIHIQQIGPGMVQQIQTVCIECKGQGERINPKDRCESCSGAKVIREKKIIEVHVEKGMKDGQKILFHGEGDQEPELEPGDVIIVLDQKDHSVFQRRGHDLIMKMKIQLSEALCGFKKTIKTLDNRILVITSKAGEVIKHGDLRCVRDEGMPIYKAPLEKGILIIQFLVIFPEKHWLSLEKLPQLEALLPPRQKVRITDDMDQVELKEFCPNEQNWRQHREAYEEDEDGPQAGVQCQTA
UniProt P35579: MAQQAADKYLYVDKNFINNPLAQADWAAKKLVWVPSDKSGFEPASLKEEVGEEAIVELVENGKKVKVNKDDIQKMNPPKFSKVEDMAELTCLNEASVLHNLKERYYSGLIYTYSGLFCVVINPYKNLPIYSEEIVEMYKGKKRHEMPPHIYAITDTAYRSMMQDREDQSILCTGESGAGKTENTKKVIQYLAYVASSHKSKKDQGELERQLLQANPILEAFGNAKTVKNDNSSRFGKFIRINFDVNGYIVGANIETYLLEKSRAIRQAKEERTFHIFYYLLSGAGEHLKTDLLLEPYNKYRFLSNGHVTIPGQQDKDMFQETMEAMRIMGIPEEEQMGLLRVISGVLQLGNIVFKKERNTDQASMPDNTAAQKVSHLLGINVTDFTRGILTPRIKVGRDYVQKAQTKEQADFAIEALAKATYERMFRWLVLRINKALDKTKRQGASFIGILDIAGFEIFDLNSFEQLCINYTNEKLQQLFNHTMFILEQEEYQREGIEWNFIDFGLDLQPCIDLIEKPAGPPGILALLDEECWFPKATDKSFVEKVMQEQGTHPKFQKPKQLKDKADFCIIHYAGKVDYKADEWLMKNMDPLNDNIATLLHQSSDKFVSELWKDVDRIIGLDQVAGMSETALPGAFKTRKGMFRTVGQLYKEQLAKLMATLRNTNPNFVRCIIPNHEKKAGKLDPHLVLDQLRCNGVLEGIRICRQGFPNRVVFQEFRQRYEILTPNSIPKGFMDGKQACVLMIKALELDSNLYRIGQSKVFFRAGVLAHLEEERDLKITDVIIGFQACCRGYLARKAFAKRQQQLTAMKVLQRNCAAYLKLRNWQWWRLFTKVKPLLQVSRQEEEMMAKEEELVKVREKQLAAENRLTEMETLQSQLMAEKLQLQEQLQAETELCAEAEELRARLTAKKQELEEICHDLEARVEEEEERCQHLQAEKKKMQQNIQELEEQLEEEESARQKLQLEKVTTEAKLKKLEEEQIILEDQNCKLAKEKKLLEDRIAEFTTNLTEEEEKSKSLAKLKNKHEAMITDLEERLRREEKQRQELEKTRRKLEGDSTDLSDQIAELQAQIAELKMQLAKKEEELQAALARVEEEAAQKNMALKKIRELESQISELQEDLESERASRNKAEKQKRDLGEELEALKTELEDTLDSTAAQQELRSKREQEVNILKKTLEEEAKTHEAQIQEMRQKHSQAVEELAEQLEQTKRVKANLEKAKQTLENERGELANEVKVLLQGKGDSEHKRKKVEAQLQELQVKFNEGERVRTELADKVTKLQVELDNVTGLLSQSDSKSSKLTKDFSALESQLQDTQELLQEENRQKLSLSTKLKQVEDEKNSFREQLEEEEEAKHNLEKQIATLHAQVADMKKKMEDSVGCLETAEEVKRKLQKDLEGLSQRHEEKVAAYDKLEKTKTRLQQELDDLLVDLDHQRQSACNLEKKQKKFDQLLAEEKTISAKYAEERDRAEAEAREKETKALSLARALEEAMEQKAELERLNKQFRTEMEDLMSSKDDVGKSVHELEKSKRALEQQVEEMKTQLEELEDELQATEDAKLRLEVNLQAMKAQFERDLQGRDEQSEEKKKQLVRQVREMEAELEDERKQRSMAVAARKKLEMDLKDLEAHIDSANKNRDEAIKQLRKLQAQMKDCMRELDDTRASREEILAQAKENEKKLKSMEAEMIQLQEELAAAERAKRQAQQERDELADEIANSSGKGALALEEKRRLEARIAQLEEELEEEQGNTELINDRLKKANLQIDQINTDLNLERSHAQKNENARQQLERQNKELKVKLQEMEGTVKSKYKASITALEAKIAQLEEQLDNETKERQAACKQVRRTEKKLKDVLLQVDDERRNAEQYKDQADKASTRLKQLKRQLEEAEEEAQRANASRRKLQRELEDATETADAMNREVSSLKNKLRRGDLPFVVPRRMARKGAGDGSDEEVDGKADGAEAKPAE
UniProt Q13200: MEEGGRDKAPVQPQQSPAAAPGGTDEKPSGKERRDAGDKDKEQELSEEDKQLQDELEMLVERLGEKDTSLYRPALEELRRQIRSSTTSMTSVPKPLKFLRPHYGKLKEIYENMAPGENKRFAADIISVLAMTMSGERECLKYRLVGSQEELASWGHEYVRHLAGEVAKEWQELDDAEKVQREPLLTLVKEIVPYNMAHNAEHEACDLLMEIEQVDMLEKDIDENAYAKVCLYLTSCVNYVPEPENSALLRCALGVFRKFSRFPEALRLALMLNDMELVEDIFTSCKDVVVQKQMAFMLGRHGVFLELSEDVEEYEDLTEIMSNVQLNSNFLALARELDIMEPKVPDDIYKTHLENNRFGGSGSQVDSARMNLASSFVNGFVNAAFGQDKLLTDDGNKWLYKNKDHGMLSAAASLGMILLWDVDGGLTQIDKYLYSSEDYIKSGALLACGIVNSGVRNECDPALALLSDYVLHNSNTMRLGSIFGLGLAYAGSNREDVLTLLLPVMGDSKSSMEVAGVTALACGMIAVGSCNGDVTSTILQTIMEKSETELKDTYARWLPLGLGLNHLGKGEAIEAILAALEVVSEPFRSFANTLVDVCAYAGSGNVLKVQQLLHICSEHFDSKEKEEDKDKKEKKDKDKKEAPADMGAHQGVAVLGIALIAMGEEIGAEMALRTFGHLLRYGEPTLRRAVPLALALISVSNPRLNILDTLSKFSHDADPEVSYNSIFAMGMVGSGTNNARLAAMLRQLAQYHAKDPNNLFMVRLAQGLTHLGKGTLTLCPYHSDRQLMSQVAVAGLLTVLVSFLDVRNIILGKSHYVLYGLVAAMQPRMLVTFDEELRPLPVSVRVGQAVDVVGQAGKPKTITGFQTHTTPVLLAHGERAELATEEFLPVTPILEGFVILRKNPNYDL

According to PMC10598267:

Molecular target: HA-tagged DNAJA4 (DNAJ Heat Shock Protein Family (HSP40) Member A4) (UniProt Q8WW22)
Test: affinity purification with mass spectrometry; SUNE1 cells transiently transfected with HA-tagged DNAJA4; lysate incubated with anti-HA antibody or IgG overnight at 4 °C, Protein A/G magnetic beads; SDS-PAGE, silver staining, LC-MS/MS

| Substance | binding |
| --- | --- |
| MYH9 (endogenous) (from UniProt P35579 1-1960) | binds |
| PSMD2 (endogenous) (from UniProt Q13200 1-908) | binds |

These are yes or no findings as the source states them, for the method shown. In cells and extracts the contact can be indirect. These calls come from enrichment with a bait or labelling near it, and not all partners need be listed.
